No constants are given. Whether binding was seen depends on the method and setting. For part of these data: In cells and extracts the contact can be indirect. Some results given as binding are weak or reduced against the parent protein; the word gives no strength. Tags and fused reporters may be left off the sequences shown.

These results are taken from publication doi:10.1101/2022.11.23.517591.

Assay [1] deals with T1, AtRGS1, luciferase complementation fusion (Arabidopsis thaliana) (UniProt Q8H1F2).
T1 sequence: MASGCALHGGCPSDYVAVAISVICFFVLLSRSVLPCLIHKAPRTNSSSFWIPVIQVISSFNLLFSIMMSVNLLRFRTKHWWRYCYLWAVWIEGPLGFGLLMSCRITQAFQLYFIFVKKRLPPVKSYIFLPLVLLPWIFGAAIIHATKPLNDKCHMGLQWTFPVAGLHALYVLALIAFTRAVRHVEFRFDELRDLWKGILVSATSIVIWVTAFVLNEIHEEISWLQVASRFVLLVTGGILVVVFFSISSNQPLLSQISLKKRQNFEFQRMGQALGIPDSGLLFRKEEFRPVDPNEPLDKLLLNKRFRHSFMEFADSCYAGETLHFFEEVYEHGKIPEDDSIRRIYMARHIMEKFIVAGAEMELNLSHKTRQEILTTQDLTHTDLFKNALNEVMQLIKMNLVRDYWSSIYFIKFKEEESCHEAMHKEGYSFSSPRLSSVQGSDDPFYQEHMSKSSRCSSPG
The assay is described as follows: split reporter.

Assay [2] concerns the target T2, AtRGS1 (Regulator of G protein Signaling 1), split-ubiquitin yeast two-hybrid fusion (Arabidopsis thaliana) (UniProt Q8H1F2).
T2 sequence: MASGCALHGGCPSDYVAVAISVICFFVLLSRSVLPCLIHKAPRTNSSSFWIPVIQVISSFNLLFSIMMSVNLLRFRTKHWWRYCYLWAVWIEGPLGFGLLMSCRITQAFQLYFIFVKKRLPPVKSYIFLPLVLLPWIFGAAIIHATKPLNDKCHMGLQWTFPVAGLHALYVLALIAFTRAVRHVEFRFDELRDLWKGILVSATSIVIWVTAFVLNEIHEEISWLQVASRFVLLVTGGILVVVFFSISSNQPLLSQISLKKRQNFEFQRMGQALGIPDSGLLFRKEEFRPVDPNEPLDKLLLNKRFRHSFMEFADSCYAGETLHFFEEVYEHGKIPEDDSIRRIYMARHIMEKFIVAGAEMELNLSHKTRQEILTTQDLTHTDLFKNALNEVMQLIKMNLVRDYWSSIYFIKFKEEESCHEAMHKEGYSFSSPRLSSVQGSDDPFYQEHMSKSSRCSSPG
The assay is described as follows: two-hybrid.

For assay [3], the target named is T3, VAP27-1, Gal4 yeast two-hybrid fusion (Arabidopsis thaliana) (UniProt Q8VZ95).
T3 sequence: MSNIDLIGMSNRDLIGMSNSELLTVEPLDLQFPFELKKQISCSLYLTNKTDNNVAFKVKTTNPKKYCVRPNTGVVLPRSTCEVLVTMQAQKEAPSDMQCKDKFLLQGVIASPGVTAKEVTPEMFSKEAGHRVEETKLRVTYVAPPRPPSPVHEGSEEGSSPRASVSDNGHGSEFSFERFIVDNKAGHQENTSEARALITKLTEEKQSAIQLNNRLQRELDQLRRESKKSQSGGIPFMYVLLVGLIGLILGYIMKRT
The assay is described as follows: two-hybrid.

For assay [4], the target named is T4, VAP27-1-GFP, from the 35S:VAP27-1-GFP transgenic plant (Arabidopsis thaliana) (UniProt Q8VZ95).
T4 sequence: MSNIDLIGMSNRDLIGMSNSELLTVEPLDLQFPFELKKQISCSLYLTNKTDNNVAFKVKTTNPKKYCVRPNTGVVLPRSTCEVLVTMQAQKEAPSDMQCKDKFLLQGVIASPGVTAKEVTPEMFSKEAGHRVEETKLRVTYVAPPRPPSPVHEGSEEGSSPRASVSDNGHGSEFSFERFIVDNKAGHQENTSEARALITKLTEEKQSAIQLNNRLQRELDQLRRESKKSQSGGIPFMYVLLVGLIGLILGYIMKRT
The assay is described as follows: co-IP.

For assay [5], the target named is T5, RGS1-YFP, from the 35S::RGS1-YFP transgenic line (Arabidopsis thaliana) (UniProt Q8H1F2).
T5 sequence: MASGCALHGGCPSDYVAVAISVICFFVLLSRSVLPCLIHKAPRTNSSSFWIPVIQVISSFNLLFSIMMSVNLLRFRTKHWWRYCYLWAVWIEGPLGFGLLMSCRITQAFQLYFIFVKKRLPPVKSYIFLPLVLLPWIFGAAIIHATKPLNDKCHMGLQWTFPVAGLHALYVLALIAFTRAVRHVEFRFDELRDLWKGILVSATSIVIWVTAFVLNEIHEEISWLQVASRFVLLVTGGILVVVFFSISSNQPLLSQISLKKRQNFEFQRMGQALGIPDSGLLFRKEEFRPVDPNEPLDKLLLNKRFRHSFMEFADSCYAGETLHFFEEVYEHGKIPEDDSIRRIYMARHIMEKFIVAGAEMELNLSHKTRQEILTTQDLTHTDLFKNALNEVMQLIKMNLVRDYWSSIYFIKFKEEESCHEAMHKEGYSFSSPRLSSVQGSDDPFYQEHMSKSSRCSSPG
In words: co-IP.

Assay [6] concerns the target T6, VAP27-1, luciferase complementation fusion (Arabidopsis thaliana) (UniProt Q8VZ95).
T6 sequence: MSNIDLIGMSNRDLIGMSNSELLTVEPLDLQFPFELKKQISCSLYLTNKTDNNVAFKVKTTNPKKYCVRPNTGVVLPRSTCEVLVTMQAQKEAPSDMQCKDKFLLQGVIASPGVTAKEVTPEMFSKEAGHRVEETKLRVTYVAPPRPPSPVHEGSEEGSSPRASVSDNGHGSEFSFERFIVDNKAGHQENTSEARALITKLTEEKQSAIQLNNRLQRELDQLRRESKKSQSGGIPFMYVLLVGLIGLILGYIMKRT
The assay is described as follows: split reporter.

B1: PH domain of ORP2A, luciferase complementation fusion (domain or fragment, UniProt Q940Y1 50-177)
chain: SETVAGILYKWTNFGKGWRSRWFLLRNGILSYSKIRRPENLNLLSPDDDVRLIGDISGERLSRMDSCSGRRKQQKTVGIVHLKVSSFRESKSDDRKFYIFTATKTLHLRTDSITDRAAWLQALASTKC
For B1, in assay [1], the binding result is “binds”.

B2: full-length ORP2A (oxysterol-binding protein (OSBP)-related protein 2A), split-ubiquitin yeast two-hybrid fusion (protein, UniProt Q940Y1 1-721)
chain: MRVKELHPLCCITLESPHGINSQSPEEPVTTALTRSRSLPAKSLTGGSESETVAGILYKWTNFGKGWRSRWFLLRNGILSYSKIRRPENLNLLSPDDDVRLIGDISGERLSRMDSCSGRRKQQKTVGIVHLKVSSFRESKSDDRKFYIFTATKTLHLRTDSITDRAAWLQALASTKCIFPLRSLNGDFSFIPPKDLSISTERLKKRLHEEGMNENLVKECEQIMLSEFSEMHGQVKLLHEERTNLLDALRQLEAANLEVGASGKHEFSSLGRGKYSECSTTASSDGKQEFEDVSEEDEPSFHDTKEFFNEPNIGSESNLAISGHTDIKRRTKLPDPAEKEKGVSLWSMIKDNVGKDLTRVCLPVYFNEPISSLQKCFEDLEYSYLLDRAYEHGKSGNGLLRALNVAAFAVSGYASTEGRHCKPFNPLLGETYEADFPEKGIRFFSEKVSHHPTVIACHCEGKGWKFWGDTNLRSKFWGRSIQVEPVGVLTLEFDDGEVFQWSKVTSTIYNIILGKLYCDHHGVMQIRGNRQYSCTLKFKEQSILERNPHQVNGFVEDVAGQKAATIFGKWDDSLYYVAGDGINKSKVSDPASNASLLWKRTKPPPNVTRYNLTSFAITLNELTPGLQEILPPTDSRLRPDQRHLENGEYEKANLEKQRLERRQRMSRQLQESGWRPRWFERQGESDTFKYTGGYWEARGHRNWDDCPDIFGEFTEELADAA
Regarding B2, the binding result in assay [2] is reported as “binds”.

B3: full-length ORP2A, Gal4 yeast two-hybrid fusion (protein, UniProt Q940Y1 1-721)
chain: MRVKELHPLCCITLESPHGINSQSPEEPVTTALTRSRSLPAKSLTGGSESETVAGILYKWTNFGKGWRSRWFLLRNGILSYSKIRRPENLNLLSPDDDVRLIGDISGERLSRMDSCSGRRKQQKTVGIVHLKVSSFRESKSDDRKFYIFTATKTLHLRTDSITDRAAWLQALASTKCIFPLRSLNGDFSFIPPKDLSISTERLKKRLHEEGMNENLVKECEQIMLSEFSEMHGQVKLLHEERTNLLDALRQLEAANLEVGASGKHEFSSLGRGKYSECSTTASSDGKQEFEDVSEEDEPSFHDTKEFFNEPNIGSESNLAISGHTDIKRRTKLPDPAEKEKGVSLWSMIKDNVGKDLTRVCLPVYFNEPISSLQKCFEDLEYSYLLDRAYEHGKSGNGLLRALNVAAFAVSGYASTEGRHCKPFNPLLGETYEADFPEKGIRFFSEKVSHHPTVIACHCEGKGWKFWGDTNLRSKFWGRSIQVEPVGVLTLEFDDGEVFQWSKVTSTIYNIILGKLYCDHHGVMQIRGNRQYSCTLKFKEQSILERNPHQVNGFVEDVAGQKAATIFGKWDDSLYYVAGDGINKSKVSDPASNASLLWKRTKPPPNVTRYNLTSFAITLNELTPGLQEILPPTDSRLRPDQRHLENGEYEKANLEKQRLERRQRMSRQLQESGWRPRWFERQGESDTFKYTGGYWEARGHRNWDDCPDIFGEFTEELADAA
Take B3: in assay [3], the binding entry is “binds”.

B4: ORP2A-3×Flag (Full-Length), from the 35S::ORP2Ag-3Flag transgenic line (protein, UniProt Q940Y1 1-721)
chain: MRVKELHPLCCITLESPHGINSQSPEEPVTTALTRSRSLPAKSLTGGSESETVAGILYKWTNFGKGWRSRWFLLRNGILSYSKIRRPENLNLLSPDDDVRLIGDISGERLSRMDSCSGRRKQQKTVGIVHLKVSSFRESKSDDRKFYIFTATKTLHLRTDSITDRAAWLQALASTKCIFPLRSLNGDFSFIPPKDLSISTERLKKRLHEEGMNENLVKECEQIMLSEFSEMHGQVKLLHEERTNLLDALRQLEAANLEVGASGKHEFSSLGRGKYSECSTTASSDGKQEFEDVSEEDEPSFHDTKEFFNEPNIGSESNLAISGHTDIKRRTKLPDPAEKEKGVSLWSMIKDNVGKDLTRVCLPVYFNEPISSLQKCFEDLEYSYLLDRAYEHGKSGNGLLRALNVAAFAVSGYASTEGRHCKPFNPLLGETYEADFPEKGIRFFSEKVSHHPTVIACHCEGKGWKFWGDTNLRSKFWGRSIQVEPVGVLTLEFDDGEVFQWSKVTSTIYNIILGKLYCDHHGVMQIRGNRQYSCTLKFKEQSILERNPHQVNGFVEDVAGQKAATIFGKWDDSLYYVAGDGINKSKVSDPASNASLLWKRTKPPPNVTRYNLTSFAITLNELTPGLQEILPPTDSRLRPDQRHLENGEYEKANLEKQRLERRQRMSRQLQESGWRPRWFERQGESDTFKYTGGYWEARGHRNWDDCPDIFGEFTEELADAA
Take B4: the binding result in assay [4] and in assay [5] was “binds” each time.

B5: full-length ORP2A, luciferase complementation fusion (protein, UniProt Q940Y1 1-721)
chain: MRVKELHPLCCITLESPHGINSQSPEEPVTTALTRSRSLPAKSLTGGSESETVAGILYKWTNFGKGWRSRWFLLRNGILSYSKIRRPENLNLLSPDDDVRLIGDISGERLSRMDSCSGRRKQQKTVGIVHLKVSSFRESKSDDRKFYIFTATKTLHLRTDSITDRAAWLQALASTKCIFPLRSLNGDFSFIPPKDLSISTERLKKRLHEEGMNENLVKECEQIMLSEFSEMHGQVKLLHEERTNLLDALRQLEAANLEVGASGKHEFSSLGRGKYSECSTTASSDGKQEFEDVSEEDEPSFHDTKEFFNEPNIGSESNLAISGHTDIKRRTKLPDPAEKEKGVSLWSMIKDNVGKDLTRVCLPVYFNEPISSLQKCFEDLEYSYLLDRAYEHGKSGNGLLRALNVAAFAVSGYASTEGRHCKPFNPLLGETYEADFPEKGIRFFSEKVSHHPTVIACHCEGKGWKFWGDTNLRSKFWGRSIQVEPVGVLTLEFDDGEVFQWSKVTSTIYNIILGKLYCDHHGVMQIRGNRQYSCTLKFKEQSILERNPHQVNGFVEDVAGQKAATIFGKWDDSLYYVAGDGINKSKVSDPASNASLLWKRTKPPPNVTRYNLTSFAITLNELTPGLQEILPPTDSRLRPDQRHLENGEYEKANLEKQRLERRQRMSRQLQESGWRPRWFERQGESDTFKYTGGYWEARGHRNWDDCPDIFGEFTEELADAA
B5: the binding entry in assay [6] is on record as “binds”.
